Assay results: publication PMC10861516
Results are given in words; binding and its absence hold for the method and conditions named. Binding seen in cells or lysates may run through a third protein. Binding can be weak; no strength is given. Tags and fused reporters may be left off the sequences shown.

Molecular target: T1, Flag-tagged human EFHD2 (EF-hand domain-containing protein D2) (human) (UniProt Q96C19)
T1 sequence: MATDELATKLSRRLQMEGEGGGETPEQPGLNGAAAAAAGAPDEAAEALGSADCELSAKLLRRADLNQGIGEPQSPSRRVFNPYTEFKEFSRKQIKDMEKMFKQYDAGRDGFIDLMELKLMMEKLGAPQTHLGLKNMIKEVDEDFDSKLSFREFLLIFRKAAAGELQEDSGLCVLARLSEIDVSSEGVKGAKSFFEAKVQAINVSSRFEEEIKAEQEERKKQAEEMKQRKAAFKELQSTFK
Assay: co-IP; lysates of HCT-116 cells overexpressing Flag-EFHD2, treated with 50 ng/ml TNF for the indicated time, immunoprecipitated with anti-FLAG M2 magnetic beads, western blot

Row | binding | Substance
1 | binds | Cofilin (human (endogenous in HCT-116))
2 | binds | TNF receptor I (TNFR1) (human (endogenous in HCT-116))
